From paper PMC11067542
Results are given in words; binding and its absence hold for the method and conditions named. In cells and extracts the contact can be indirect. These calls come from enrichment with a bait or labelling near it, and not all partners need be listed.

Amino acid sequences for entries named in this document (tags omitted). Residues count along the entry.
UniProt Q96P20: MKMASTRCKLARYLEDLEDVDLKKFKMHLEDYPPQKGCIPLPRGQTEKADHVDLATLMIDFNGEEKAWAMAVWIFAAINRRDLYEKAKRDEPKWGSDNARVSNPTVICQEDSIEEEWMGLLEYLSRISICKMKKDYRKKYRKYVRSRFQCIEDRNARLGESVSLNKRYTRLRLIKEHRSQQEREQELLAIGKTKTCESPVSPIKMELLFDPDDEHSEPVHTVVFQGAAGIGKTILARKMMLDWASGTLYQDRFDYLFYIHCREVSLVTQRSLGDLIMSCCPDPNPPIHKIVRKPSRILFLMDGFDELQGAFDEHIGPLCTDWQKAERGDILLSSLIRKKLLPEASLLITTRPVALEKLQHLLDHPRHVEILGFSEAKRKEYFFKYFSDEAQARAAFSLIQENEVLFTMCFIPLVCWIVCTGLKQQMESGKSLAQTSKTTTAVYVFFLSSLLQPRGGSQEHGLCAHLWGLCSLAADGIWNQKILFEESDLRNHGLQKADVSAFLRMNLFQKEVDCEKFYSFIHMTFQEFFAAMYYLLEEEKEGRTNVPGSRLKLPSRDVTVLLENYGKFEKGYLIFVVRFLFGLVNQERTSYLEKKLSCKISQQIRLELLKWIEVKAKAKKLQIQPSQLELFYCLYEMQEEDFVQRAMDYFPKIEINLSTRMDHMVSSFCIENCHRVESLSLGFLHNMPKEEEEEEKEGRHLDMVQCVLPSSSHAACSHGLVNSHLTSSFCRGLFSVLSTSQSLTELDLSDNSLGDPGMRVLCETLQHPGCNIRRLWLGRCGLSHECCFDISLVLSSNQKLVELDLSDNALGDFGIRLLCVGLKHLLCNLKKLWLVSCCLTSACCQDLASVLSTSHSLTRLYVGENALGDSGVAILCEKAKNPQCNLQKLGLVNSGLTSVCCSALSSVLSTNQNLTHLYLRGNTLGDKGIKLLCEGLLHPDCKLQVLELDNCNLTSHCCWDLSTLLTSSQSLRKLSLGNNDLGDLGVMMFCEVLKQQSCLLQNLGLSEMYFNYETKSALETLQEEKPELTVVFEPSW
UniProt P13645: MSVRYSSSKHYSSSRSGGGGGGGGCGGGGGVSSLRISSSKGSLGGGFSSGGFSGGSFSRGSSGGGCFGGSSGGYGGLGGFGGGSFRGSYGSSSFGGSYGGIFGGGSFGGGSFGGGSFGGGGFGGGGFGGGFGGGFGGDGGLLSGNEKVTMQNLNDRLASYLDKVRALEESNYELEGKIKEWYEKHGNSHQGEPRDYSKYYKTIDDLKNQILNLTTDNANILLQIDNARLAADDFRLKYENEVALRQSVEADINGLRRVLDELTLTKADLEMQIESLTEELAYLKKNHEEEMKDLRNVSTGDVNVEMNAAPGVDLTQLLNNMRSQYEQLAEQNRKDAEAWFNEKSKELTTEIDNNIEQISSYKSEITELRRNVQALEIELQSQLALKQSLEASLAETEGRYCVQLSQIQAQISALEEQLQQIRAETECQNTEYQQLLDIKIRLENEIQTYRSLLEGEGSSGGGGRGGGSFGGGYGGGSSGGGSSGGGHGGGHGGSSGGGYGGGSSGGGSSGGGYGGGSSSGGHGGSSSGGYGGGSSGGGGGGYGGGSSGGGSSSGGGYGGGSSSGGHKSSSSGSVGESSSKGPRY
UniProt P34931: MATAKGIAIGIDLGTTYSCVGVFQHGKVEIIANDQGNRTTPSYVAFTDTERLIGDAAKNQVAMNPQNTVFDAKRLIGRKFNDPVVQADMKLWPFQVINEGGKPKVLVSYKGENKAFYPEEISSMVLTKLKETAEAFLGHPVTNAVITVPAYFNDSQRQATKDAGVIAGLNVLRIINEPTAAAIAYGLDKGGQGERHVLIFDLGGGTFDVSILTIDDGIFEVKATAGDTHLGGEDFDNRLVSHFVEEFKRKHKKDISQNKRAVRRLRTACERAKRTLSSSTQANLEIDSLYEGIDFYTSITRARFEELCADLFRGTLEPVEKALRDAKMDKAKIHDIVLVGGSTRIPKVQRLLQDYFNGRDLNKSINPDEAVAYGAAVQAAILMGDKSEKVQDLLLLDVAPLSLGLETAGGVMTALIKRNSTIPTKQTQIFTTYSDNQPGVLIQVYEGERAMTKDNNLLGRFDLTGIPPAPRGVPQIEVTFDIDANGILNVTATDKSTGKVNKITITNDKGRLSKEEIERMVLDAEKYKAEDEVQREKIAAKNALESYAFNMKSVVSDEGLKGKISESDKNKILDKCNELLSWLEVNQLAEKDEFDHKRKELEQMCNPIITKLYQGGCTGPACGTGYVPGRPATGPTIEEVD
UniProt P38646, residues 47-679: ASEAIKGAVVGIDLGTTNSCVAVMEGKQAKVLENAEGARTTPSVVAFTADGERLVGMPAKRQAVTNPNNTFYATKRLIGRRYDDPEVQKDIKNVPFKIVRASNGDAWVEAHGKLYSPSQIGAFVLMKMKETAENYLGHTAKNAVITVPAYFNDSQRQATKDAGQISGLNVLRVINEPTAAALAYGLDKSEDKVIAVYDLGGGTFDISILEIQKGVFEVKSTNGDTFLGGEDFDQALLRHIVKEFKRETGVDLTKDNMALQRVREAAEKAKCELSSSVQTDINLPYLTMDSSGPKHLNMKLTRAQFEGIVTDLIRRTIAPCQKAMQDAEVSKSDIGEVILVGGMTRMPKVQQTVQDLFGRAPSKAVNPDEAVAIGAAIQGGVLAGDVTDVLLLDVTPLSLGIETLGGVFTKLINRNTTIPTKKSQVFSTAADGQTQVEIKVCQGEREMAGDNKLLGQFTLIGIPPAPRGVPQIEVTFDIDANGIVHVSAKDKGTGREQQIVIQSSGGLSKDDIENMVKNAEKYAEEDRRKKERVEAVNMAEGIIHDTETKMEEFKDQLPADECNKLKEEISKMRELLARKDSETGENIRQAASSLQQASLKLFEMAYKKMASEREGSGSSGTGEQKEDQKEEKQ
UniProt P31943: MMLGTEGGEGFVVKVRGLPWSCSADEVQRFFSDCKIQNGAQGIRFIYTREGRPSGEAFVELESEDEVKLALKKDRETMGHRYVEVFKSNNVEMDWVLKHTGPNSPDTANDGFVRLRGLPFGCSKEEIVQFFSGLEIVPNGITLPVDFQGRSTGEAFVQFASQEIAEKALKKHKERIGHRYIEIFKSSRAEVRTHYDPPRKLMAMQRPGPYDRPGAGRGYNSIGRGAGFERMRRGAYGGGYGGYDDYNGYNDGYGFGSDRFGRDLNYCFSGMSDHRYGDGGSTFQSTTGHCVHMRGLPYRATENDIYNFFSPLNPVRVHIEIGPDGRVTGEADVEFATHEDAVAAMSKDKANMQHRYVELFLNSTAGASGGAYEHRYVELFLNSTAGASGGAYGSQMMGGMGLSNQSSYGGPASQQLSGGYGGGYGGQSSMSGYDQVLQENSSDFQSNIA
UniProt P68104: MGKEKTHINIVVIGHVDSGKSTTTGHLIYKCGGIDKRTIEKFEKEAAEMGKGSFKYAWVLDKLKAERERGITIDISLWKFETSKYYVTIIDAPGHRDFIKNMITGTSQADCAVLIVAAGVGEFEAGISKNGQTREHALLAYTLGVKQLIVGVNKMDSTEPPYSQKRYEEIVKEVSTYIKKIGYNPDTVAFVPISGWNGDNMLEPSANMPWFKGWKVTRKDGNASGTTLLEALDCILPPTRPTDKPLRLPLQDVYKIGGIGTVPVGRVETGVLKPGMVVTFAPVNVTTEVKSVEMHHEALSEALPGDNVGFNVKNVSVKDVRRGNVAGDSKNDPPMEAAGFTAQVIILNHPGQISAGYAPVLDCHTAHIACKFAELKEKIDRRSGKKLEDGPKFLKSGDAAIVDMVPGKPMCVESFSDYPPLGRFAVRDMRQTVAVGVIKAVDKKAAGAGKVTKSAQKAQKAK
UniProt P13647: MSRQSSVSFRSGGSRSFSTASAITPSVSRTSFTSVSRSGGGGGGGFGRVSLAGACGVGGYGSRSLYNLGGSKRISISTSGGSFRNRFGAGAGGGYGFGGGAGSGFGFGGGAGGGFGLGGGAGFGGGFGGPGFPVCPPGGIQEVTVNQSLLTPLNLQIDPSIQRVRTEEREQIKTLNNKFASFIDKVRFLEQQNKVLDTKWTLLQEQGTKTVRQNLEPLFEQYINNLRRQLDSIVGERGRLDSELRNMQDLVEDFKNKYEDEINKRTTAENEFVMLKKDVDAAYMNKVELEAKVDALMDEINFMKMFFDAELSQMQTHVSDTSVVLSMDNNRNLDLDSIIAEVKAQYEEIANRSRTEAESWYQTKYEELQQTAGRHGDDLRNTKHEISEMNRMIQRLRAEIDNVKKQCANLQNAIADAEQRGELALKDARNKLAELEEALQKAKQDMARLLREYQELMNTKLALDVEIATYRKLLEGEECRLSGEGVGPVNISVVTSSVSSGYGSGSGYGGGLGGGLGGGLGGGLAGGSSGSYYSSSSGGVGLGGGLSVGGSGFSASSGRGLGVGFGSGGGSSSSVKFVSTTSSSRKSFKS
UniProt P11142: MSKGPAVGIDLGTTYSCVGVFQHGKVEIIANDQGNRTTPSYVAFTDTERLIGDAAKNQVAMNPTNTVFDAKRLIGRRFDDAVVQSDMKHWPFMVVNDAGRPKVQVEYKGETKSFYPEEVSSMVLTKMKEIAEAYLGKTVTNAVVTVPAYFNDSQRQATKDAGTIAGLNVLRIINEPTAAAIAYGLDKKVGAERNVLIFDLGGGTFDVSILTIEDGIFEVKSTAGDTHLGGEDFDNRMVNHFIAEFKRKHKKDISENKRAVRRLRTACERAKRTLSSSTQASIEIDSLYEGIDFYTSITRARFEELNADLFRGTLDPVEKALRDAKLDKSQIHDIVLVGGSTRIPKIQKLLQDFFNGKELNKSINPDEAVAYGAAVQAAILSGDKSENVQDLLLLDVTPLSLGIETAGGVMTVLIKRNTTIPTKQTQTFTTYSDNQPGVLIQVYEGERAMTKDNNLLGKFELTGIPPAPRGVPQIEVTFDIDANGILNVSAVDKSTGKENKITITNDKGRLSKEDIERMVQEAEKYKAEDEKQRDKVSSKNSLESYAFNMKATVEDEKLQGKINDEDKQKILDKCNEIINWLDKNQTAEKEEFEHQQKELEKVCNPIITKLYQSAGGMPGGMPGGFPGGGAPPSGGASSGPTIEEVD
UniProt Q9BYE2: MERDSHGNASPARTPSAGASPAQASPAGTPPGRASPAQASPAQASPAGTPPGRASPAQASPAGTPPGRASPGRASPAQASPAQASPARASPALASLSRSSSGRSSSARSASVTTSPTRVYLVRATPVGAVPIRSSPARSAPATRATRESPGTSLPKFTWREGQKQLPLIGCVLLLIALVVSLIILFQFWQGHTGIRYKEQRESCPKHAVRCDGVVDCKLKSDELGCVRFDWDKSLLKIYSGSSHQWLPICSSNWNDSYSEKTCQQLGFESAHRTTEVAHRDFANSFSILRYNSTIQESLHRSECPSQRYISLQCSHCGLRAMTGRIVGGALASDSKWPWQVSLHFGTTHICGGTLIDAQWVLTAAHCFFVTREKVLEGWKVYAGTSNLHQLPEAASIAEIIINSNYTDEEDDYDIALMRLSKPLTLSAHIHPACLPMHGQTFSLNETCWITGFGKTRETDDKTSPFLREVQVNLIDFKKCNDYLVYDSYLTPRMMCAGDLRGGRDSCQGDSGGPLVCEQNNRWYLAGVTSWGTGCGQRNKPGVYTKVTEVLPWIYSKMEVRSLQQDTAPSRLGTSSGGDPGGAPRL
UniProt Q9BQE3: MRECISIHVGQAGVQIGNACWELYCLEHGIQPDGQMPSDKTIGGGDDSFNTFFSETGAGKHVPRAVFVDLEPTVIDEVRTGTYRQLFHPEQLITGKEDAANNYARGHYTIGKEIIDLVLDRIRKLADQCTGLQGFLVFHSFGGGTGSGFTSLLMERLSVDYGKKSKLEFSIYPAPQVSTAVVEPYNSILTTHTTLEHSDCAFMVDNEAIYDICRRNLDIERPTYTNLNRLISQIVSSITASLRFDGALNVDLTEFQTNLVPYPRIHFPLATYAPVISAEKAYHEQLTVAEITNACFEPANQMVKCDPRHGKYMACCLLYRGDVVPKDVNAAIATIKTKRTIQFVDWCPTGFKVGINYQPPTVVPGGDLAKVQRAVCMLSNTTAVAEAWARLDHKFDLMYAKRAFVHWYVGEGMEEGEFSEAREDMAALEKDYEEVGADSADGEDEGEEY
UniProt P07437: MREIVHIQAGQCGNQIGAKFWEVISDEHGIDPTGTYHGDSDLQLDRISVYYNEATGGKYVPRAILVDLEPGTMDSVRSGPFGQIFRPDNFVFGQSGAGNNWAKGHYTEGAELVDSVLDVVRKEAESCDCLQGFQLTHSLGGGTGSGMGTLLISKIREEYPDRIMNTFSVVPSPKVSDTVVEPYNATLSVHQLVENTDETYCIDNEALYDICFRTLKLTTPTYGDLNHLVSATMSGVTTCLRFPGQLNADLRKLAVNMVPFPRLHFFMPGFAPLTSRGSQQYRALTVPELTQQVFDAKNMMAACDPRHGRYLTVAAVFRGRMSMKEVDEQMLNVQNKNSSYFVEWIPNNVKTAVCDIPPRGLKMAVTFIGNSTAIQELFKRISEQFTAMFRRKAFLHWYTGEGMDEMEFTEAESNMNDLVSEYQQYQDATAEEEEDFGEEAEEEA

B1: Phosphate carrier protein, mitochondrial (SLC25A3), found with NLRP3 in HEK293T cells (protein, UniProt Q00325 50-362)
chain: AVEEQYSCDYGSGRFFILCGLGGIISCGTTHTALVPLDLVKCRMQVDPQKYKGIFNGFSVTLKEDGVRGLAKGWAPTFLGYSMQGLCKFGFYEVFKVLYSNMLGEENTYLWRTSLYLAASASAEFFADIALAPMEAAKVRIQTQPGYANTLRDAAPKMYKEEGLKAFYKGVAPLWMRQIPYTMMKFACFERTVEALYKFVVPKPRSECSKPEQLVVTFVAGYIAGVFCAIVSHPADSVVSVLNKEKGSSASLVLKRLGFKGVWKGLFARIIMIGTLTALQWFIYDSVKVYFRLPRPPPPEMPESLKKKLGLTQ
B2: Keratin, type I cytoskeletal 9 (protein, UniProt P35527 1-623)
chain: MSCRQFSSSYLSRSGGGGGGGLGSGGSIRSSYSRFSSSGGGGGGGRFSSSSGYGGGSSRVCGRGGGGSFGYSYGGGSGGGFSASSLGGGFGGGSRGFGGASGGGYSSSGGFGGGFGGGSGGGFGGGYGSGFGGFGGFGGGAGGGDGGILTANEKSTMQELNSRLASYLDKVQALEEANNDLENKIQDWYDKKGPAAIQKNYSPYYNTIDDLKDQIVDLTVGNNKTLLDIDNTRMTLDDFRIKFEMEQNLRQGVDADINGLRQVLDNLTMEKSDLEMQYETLQEELMALKKNHKEEMSQLTGQNSGDVNVEINVAPGKDLTKTLNDMRQEYEQLIAKNRKDIENQYETQITQIEHEVSSSGQEVQSSAKEVTQLRHGVQELEIELQSQLSKKAALEKSLEDTKNRYCGQLQMIQEQISNLEAQITDVRQEIECQNQEYSLLLSIKMRLEKEIETYHNLLEGGQEDFESSGAGKIGLGGRGGSGGSYGRGSRGGSGGSYGGGGSGGGYGGGSGSRGGSGGSYGGGSGSGGGSGGGYGGGSGGGHSGGSGGGHSGGSGGNYGGGSGSGGGSGGGYGGGSGSRGGSGGSHGGGSGFGGESGGSYGGGEEASGSGGGYGGGSGKSSHS

target: NACHT, LRR and PYD domains-containing protein 3 (NLRP3), bait of the mass spectrometry screen (human) (UniProt Q96P20); assay: affinity purification with mass spectrometry; proteins interacting with NLRP3 in HEK293T cells screened by mass spectrometry (schematic in Fig. 1A)

binding, binds:
B1
B2

target: NACHT, LRR and PYD domains-containing protein 3 (NLRP3), bait of the mass spectrometry screen (human) (UniProt Q96P20); assay: as above; remark: another data set of the same source

binding, binds:
Keratin, type I cytoskeletal 10 (from UniProt P13645 1-584)
Keratin, type II cytoskeletal 1 (from UniProt P04264 1-644)
Heat shock 70 kDa protein 1-like (from UniProt P34931 1-641)
Trypsin-1 (from UniProt P07477) (enzyme)
Stress-70 protein, mitochondrial (from UniProt P38646 47-679)
Heterogeneous nuclear ribonucleoprotein H (from UniProt P31943 1-449)
Elongation factor 1-alpha 1 (EEF1A1), found with NLRP3 in HEK293T cells (from UniProt P68104 1-462)
Keratin, type II cytoskeletal 5 (from UniProt P13647 1-590)
Tubulin alpha-1B chain (from UniProt P68363 1-451)
Elongation factor 1-alpha 2 (EEF1A2), found with NLRP3 in HEK293T cells (from UniProt Q05639 1-463)
Putative elongation factor 1-alpha-like 3 (from UniProt Q5VTE0 1-462)
Heat shock 70 kDa protein 1A (from UniProt P0DMV8 1-641)
Heat shock cognate 71 kDa protein (from UniProt P11142 1-646)
Glyceraldehyde-3-phosphate dehydrogenase (from UniProt P04406 1-335) (enzyme)
Keratin, type II cytoskeletal 2 epidermal (from UniProt P35908 1-639)
Transmembrane protease serine 13 (from UniProt Q9BYE2 1-586) (enzyme)
Tubulin alpha-1C chain (from UniProt Q9BQE3 1-449)
Tubulin beta chain (from UniProt P07437 1-444)
